The other results are listed elsewhere or left out. Small differences around the control level are noise.

The chains behind the UniProt entries cited, without tags or fusion partners. Where a name states a change or a piece, a line headed by the entry shows the natural chain unless it says otherwise.
UniProt P36547: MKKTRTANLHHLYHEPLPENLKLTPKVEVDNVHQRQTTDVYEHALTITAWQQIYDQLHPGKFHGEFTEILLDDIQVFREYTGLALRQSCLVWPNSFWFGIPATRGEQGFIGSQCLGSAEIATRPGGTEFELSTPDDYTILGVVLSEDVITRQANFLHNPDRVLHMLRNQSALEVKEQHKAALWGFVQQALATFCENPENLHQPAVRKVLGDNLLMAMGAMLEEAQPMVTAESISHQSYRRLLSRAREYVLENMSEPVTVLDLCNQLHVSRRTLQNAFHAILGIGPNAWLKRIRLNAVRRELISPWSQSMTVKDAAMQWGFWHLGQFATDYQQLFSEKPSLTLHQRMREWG
UniProt P37661: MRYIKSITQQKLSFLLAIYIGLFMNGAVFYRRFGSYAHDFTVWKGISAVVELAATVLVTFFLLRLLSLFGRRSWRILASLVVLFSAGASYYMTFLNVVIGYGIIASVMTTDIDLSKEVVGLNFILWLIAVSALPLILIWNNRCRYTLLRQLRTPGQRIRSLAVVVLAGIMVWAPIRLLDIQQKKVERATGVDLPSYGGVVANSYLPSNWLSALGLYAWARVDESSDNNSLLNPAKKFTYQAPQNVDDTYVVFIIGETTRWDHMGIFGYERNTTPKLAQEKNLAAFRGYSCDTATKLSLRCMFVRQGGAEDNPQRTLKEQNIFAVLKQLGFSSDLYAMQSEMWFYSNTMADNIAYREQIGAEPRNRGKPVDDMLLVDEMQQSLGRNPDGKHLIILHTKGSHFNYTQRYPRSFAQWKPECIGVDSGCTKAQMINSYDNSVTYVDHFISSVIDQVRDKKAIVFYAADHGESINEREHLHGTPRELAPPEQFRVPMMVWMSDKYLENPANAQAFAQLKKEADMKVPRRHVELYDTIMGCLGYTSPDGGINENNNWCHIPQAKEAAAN
UniProt P37774: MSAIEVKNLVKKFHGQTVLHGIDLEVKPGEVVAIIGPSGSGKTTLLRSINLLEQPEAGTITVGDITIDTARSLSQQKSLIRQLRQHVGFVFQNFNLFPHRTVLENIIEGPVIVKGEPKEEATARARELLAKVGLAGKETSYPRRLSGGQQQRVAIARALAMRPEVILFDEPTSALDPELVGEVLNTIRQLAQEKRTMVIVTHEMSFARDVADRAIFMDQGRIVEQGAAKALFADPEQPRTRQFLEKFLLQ
UniProt P36938: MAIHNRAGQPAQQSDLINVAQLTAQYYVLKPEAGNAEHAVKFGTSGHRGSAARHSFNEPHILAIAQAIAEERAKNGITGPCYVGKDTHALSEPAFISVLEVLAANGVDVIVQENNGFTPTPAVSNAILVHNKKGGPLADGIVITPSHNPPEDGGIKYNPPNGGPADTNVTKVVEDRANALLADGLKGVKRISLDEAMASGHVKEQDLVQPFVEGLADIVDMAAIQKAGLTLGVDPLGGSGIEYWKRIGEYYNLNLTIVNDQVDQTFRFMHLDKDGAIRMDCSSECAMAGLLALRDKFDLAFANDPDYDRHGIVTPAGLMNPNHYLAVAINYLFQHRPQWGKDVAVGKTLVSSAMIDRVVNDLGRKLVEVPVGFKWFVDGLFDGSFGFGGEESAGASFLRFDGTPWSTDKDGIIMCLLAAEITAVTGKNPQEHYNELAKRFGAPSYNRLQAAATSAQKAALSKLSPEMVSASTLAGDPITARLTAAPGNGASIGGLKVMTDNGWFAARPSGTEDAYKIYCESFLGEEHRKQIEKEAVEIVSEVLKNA
UniProt P37326: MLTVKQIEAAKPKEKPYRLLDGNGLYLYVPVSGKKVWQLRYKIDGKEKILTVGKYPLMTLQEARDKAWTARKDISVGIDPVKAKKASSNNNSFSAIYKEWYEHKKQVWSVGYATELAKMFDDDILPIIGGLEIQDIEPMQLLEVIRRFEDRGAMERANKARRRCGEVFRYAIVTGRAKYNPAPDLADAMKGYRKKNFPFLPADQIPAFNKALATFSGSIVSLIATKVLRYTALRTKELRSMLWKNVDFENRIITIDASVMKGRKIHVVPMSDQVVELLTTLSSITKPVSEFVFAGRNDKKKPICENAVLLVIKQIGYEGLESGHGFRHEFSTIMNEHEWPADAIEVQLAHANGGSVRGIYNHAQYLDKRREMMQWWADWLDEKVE

Compound in the assay: CC1(C)S[C@@H]2[C@H](NC(=O)[C@H](N)c3ccccc3)C(=O)N2[C@H]1C(=O)O [ampicillin]
Description: log2 fold change of tryptic peptide abundance, ligand vs vehicle (limited proteolysis) (log2 ratio); higher = more trypsin-susceptible (destabilized). To be noted: ligand concentration: 10 uM; sample: E. coli crude lysate.
Take “UniProt P36547 (peptide sequence: NQSALEVK, peptide start residue: 168)”: the log2 fold change came to 0.483.

Regarding “UniProt P37661 (peptide sequence: QGGAEDNPQR, peptide start residue: 305)”, the log2 fold change amounted to 0.485.

On to “UniProt P37774 (peptide sequence: TVLENIIEGPVIVKGEPK, peptide start residue: 101)”, for which the log2 fold change was 0.452.

For “UniProt P36938 (peptide sequence: NPQEHYNELAK, peptide start residue: 428)”, the log2 fold change was 0.372.

For the target “UniProt P37326 (peptide sequence: EWYEHKK, peptide start residue: 99)”, the log2 fold change is 0.526.

For the origin of these results see the supplement of paper PMC12819154, “High-throughput peptide-centric local stability assay extends protein–ligand identification to membrane proteins, tissues and bacteria” (Nature Structural & Molecular Biology, 2025).
